Reference: the supplement of paper PMC12873370
Values joined by “and” are separate entries in the source; they are usually repeats but may differ in a detail not shown here. Identical values can stand only once. The list shows a part of the results. Many values rest on one well or one pass, so single values are uncertain.

Experiments:
Assay in all cases: cell viability relative to untreated (fraction); higher = less growth inhibition
Settings in all cases: 5 µM; 3 days
[1] = system: MEPP (mouse ovarian epithelium Trp53/Pten KO)
[2] = system: PREPP (mouse prostate epithelium Trp53/Pten KO)
[3] = system: MEPP (mouse ovarian epithelium Trp53/Pten KO); remark: listed apart in the source
[4] = system: PREPP (mouse prostate epithelium Trp53/Pten KO); remark: listed apart in the source

CN[C@H]1[C@H](O)[C@H](O[C@@H]2[C@@H](O)[C@H](O[C@H]3O[C@H](C(C)O)[C@@H](O)[C@H](O)[C@H]3N)[C@@H](N)C[C@H]2N)OC[C@@]1(C)O (stereo partly drawn)
cell viability [1]: 1.25
cell viability [2]: 0.885

C[C@@]12C(=O)OC(=O)[C@]1(C)[C@H]1CC[C@@H]2O1
cell viability [1]: 0.713
cell viability [2]: 0.763

CCN1CCN(C(=O)Cc2ccc(Nc3ncc(F)c(Nc4ccc(C(=O)Nc5ccccc5Cl)cc4)n3)cc2)CC1
cell viability [3]: 0.624
cell viability [4]: 0.7

N#C/C=C1/C=C[C@@H](O)[C@H](O)[C@H]1O[C@@H]1O[C@H](CO)[C@@H](O)[C@H](O)[C@H]1O
cell viability [1]: 1.02
cell viability [2]: 1.01

O=C(CBr)c1ccc(O)cc1
cell viability [3]: 1
cell viability [4]: 0.829

O=C(O)CNC(=O)C1C(=O)N(C2CCCCC2)C(=O)N(C2CCCCC2)C1=O
cell viability [3]: 0.882
cell viability [4]: 1.14

C[S@+]([O-])CCCCN=C=S
cell viability [3]: 1.16
cell viability [4]: 0.978

BrC1C(Br)C(Br)C(Br)C(Br)C1Br (stereo not drawn)
cell viability [3]: 0.918
cell viability [4]: 1.09

CCCC(=O)N[C@H]1CCOC1=O
cell viability [1]: 1.13
cell viability [2]: 0.957

C/C(O)=C(\C#N)C(=O)Nc1cc(Br)ccc1Br
cell viability [3]: 0.855
cell viability [4]: 0.996

CCCC[N+]1(C)[C@@H]2C[C@@H](OC(=O)[C@H](CO)c3ccccc3)C[C@H]1[C@@H]1O[C@@H]12 (stereo partly drawn)
cell viability [1]: 1.1
cell viability [2]: 0.932

CCNC(=O)C[C@@H]1N=C(c2ccc(Cl)cc2)c2cc(OC)ccc2-n2c(C)nnc21
cell viability [3]: 0.878
cell viability [4]: 0.619

CCN1C[C@]2(COC)CC[C@H](OC)[C@]34C1[C@H]([C@H](OC)[C@H]23)[C@@]1(OC(C)=O)C[C@H](OC)[C@@]2(O)C[C@@H]4[C@@H]1[C@H]2OC(=O)c1ccc(OC)cc1
cell viability [1]: 1.06
cell viability [2]: 0.986

CN[C@@H]1C[C@H]2O[C@@](C)([C@@H]1OC)n1c3ccccc3c3c4c(c5c6ccccc6n2c5c31)C(=O)NC4
cell viability [3]: 0.141
cell viability [4]: 0.277
cell viability [1]: 0.374
cell viability [2]: 0.207

Cc1sc2c(c1C)C(c1ccc(Cl)cc1)=N[C@@H](CC(N)=O)c1nnc(C)n1-2
cell viability [3]: 1.01
cell viability [4]: 0.672

CC(C)(O)/C=C/C(=O)[C@](C)(O)[C@H]1[C@H](O)C[C@@]2(C)[C@@H]3CC=C4[C@@H](C=C(O)C(=O)C4(C)C)[C@]3(C)C(=O)C[C@]12C
cell viability [3]: 0.943
cell viability [4]: 0.991

CN1[C@@H]2CC[C@H]1C[C@@H](OC(=O)[C@H](CO)c1ccccc1)C2
cell viability [1]: 1.29
cell viability [2]: 0.865

c1ccc([C@@H]2C[C@H]2NC2CCNCC2)cc1
cell viability [3]: 0.961
cell viability [4]: 0.902

C[C@@H]1C(=O)O[C@H]2[C@H](O)[C@@]34O[C@@H]5OC(=O)[C@H](O)[C@@]56[C@H](C(C)(C)C)[C@H](O)C(OC3=O)[C@]64[C@@]12O (stereo partly drawn)
cell viability [3]: 1.14
cell viability [4]: 0.905
cell viability [1]: 1.11
cell viability [2]: 1.23

C[C@H]1C(=O)O[C@@H]2CCN3CC=C(COC(=O)[C@](C)(O)[C@]1(C)O)[C@H]23
cell viability [1]: 1.37
cell viability [2]: 0.991

C#C[C@]1(O)CC[C@H]2[C@@H]3CCC4=CC(=O)CC[C@]4(C)[C@H]3CC[C@@]21C
cell viability [1]: 0.95
cell viability [2]: 0.907

CC(=O)Oc1ccc(/C=C/c2cc(OC(C)=O)cc(OC(C)=O)c2)cc1
cell viability [3]: 0.678
cell viability [4]: 0.981
cell viability [1]: 0.899
cell viability [2]: 0.9

CCCCCCCCCCCCCC(=O)O[C@@H]1[C@@H](C)[C@@]2(O)[C@@H](C=C(CO)C[C@]3(O)C(=O)C(C)=C[C@@H]23)[C@@H]2C(C)(C)[C@]12OC(C)=O
cell viability [3]: 1.03
cell viability [4]: 1.05
cell viability [1]: 0.814
cell viability [2]: 0.95

C[C@]12CCC(=O)C=C1CC[C@@H]1[C@@H]2C(=O)C[C@]2(C)C(=O)CC[C@@H]12
cell viability [1]: 0.981
cell viability [2]: 0.901

COC[C@]12CN(C)C3[C@@H]4[C@H](OC)[C@H]1[C@@]3([C@@H](OC)C[C@H]2O)[C@@H]1C[C@@]2(O)[C@H](OC(=O)c3ccccc3)[C@@H]1[C@]4(O)[C@@H](O)[C@@H]2OC
cell viability [1]: 0.85
cell viability [2]: 0.83

C[C@]12CC[C@H](O)CC1=CC[C@@H]1[C@@H]2CC[C@]2(C)C(=O)CC[C@@H]12
cell viability [1]: 0.931
cell viability [2]: 0.981

C[C@@]1(C(=O)O)CC[C@]2(C)CC[C@]3(C)C4=CC(=O)c5c(cc(O)c(O)c5C=O)[C@]4(C)CC[C@@]3(C)[C@@H]2C1
cell viability [1]: 0.837
cell viability [2]: 0.8

COc1cc(C2OCC3C(c4cc(OC)c(O[C@@H]5O[C@H](CO)[C@@H](O)[C@H](O)[C@H]5O)c(OC)c4)OCC23)cc(OC)c1O[C@H]1O[C@@H](CO)[C@H](O)[C@@H](O)[C@@H]1O (stereo partly drawn)
cell viability [1]: 0.962
cell viability [2]: 0.941

C[S+]([O-])CCCCN=C=S (stereo not drawn)
cell viability [3]: 0.979
cell viability [4]: 0.984
cell viability [1]: 1.24
cell viability [2]: 1

CN(C)NC(=O)CCC(=O)O
cell viability [3]: 1.04
cell viability [4]: 0.911
cell viability [1]: 1.06
cell viability [2]: 0.954

N[C@@H]1C[C@H]1c1ccccc1
cell viability [3]: 1.06
cell viability [4]: 1.03

CN1CCc2cc3c(cc2C1C1OC(=O)c2c1ccc1c2OCO1)OCO3 (stereo not drawn)
cell viability [1]: 0.962
cell viability [2]: 0.929

Cn1cc(C2=C(c3cn(C4CCN(Cc5ccccn5)CC4)c4ccccc34)C(=O)NC2=O)c2ccccc21
cell viability [3]: 0.788
cell viability [4]: 0.719

COC1=C[C@@H]2[C@@H]3Cc4ccc(OC)c(O)c4[C@]2(CCN3C)CC1=O
cell viability [1]: 1.23 and 1
cell viability [2]: 0.978 and 0.902

C[C@@H]1CC[C@]2(NC1)O[C@H]1C[C@H]3[C@@H]4CC=C5C[C@@H](O)CC[C@]5(C)[C@H]4CC[C@]3(C)[C@H]1[C@@H]2C
cell viability [1]: 1.18
cell viability [2]: 0.905

COc1ccc2c(c[n+](C)c3c4cc5c(cc4ccc23)OCO5)c1OC
cell viability [4]: 0.765 and 0.791
cell viability [1]: 0.374
cell viability [2]: 0.666

Cc1sc2c(c1C)C(c1ccc(Cl)cc1)=N[C@@H](CC(=O)Nc1ccc(O)cc1)c1nnc(C)n1-2
cell viability [3]: 0.673
cell viability [4]: 0.57

C/C(=C\c1csc(C)n1)[C@@H]1C[C@@H]2O[C@@H]2CCC[C@H](C)[C@H](O)[C@@H](C)C(=O)C(C)(C)[C@@H](O)CC(=O)O1
cell viability [1]: 0.753
cell viability [2]: 0.549

COc1cc2c(cc1O)C[C@@H]1NCCc3cc(OC)c(O)c-2c31
cell viability [1]: 0.965
cell viability [2]: 0.794

Nc1nc(N)nc(NC2CC2)n1
cell viability [1]: 0.783
cell viability [2]: 0.895

NCCc1c[nH]c2ccc(O)cc12
cell viability [1]: 0.978
cell viability [2]: 0.97

O=c1cccc2n1C[C@@H]1CNC[C@H]2C1
cell viability [1]: 0.855
cell viability [2]: 0.893

CCC12C=CCN3CC[C@@]4(c5ccc(OC)cc5N(C)[C@H]4[C@@](O)(C(=O)OC)[C@@H]1OC(C)=O)[C@@H]32 (stereo partly drawn)
cell viability [1]: 1.48
cell viability [2]: 0.893

COc1cc2c(c(OC)c1OC)-c1ccc(OC)c(=O)cc1[C@@H](NC(C)=O)CC2
cell viability [1]: 0.673
cell viability [2]: 0.707

COc1ccc(C=O)cc1O
cell viability [1]: 0.823
cell viability [2]: 0.939

CCN1CC2(OC(=O)c3ccccc3NC(C)=O)CCC(OC)C34C1C(CC23)C1(O)CC(OC)C2CC4C1(O)C2OC (stereo not drawn)
cell viability [1]: 0.802
cell viability [2]: 0.863

O=Cc1ccco1
cell viability [1]: 1.06
cell viability [2]: 0.966

CC1=C[C@]23C(=O)[C@@H](C=C(CO)[C@@H](O)[C@]2(O)[C@H]1O)[C@H]1[C@@H](C[C@H]3C)C1(C)C
cell viability [1]: 0.947
cell viability [2]: 0.912

COc1cc([C@@H]2c3cc4c(cc3[C@H](O)[C@H]3COC(=O)[C@@H]23)OCO4)cc(OC)c1OC
cell viability [1]: 0.638
cell viability [2]: 0.769

Oc1cc(O)cc(/C=C/c2ccc(O)cc2O)c1
cell viability [1]: 0.893
cell viability [2]: 0.826

NC(=O)Cc1ccccc1
cell viability [1]: 0.973
cell viability [2]: 0.972

C=C[C@@]12CN(C)[C@H]3C[C@]14C(=Nc1ccccc14)[C@@H]1C[C@@H]2[C@@H]3CO1
cell viability [1]: 1.14
cell viability [2]: 0.897

CCC1=CC2CN3CCc4c([nH]c5ccccc45)C(C(=O)OC)(C2)C13 (stereo not drawn)
cell viability [1]: 0.892
cell viability [2]: 0.853

CC1=C(O)C(=O)C=C2C1=CC=C1[C@@]2(C)CC[C@@]2(C)[C@@H]3C[C@](C)(C(=O)O)CC[C@]3(C)CC[C@]12C
cell viability [1]: 0.757
cell viability [2]: 0.582

COc1ccc(C[C@H]2NC[C@H](O)[C@H]2OC(C)=O)cc1
cell viability [1]: 0.351
cell viability [2]: 0.672

O=[N+]([O-])c1ncc[nH]1
cell viability [1]: 0.787
cell viability [2]: 0.867

N#C[C@H](O[C@@H]1O[C@H](CO[C@@H]2O[C@H](CO)[C@@H](O)[C@H](O)[C@H]2O)[C@@H](O)[C@H](O)[C@H]1O)c1ccccc1
cell viability [1]: 0.957
cell viability [2]: 1.32

C[C@@H]1CC[C@H]2[C@@H](C)C(=O)O[C@@H]3O[C@@]4(C)CC[C@@H]1[C@]32OO4
cell viability [1]: 1.24
cell viability [2]: 1.31

O=C(O)CNC(=O)c1cccnc1
cell viability [1]: 0.915
cell viability [2]: 1.14

CC(=O)O[C@H]1CC[C@@]2(C)C(=CC[C@@H]3[C@@H]2CC[C@]2(C)C(=O)CC[C@@H]32)C1
cell viability [1]: 1.17
cell viability [2]: 1.09

CC(=O)NC1CCSC1=O (stereo not drawn)
cell viability [1]: 0.87
cell viability [2]: 0.925

CN1C2CCC1CC(O)C2 (stereo not drawn)
cell viability [1]: 0.933
cell viability [2]: 0.724

COc1cc(OC)c(OC)cc1C=O
cell viability [1]: 0.948
cell viability [2]: 0.901

CCCCCc1cc(O)cc(O)c1
cell viability [1]: 0.914
cell viability [2]: 1.29

COc1cc2c(cc1OC)[C@@]13CCN4CC5=CCO[C@H]6CC(=O)N2[C@H]1[C@H]6[C@H]5C[C@H]43
cell viability [1]: 1.09
cell viability [2]: 0.811

Oc1cc(Cl)ccc1Oc1ccc(Cl)cc1Cl
cell viability [1]: 1.01
cell viability [2]: 0.742

O=[N+]([O-])C(Br)(CO)CO
cell viability [1]: 0.835
cell viability [2]: 0.93

COC[C@]12CN(C)[C@@H]3[C@@H]4[C@H](OC)[C@H]1[C@@]3([C@@H](OC)C[C@H]2O)[C@@H]1C[C@@]2(O)[C@H](OC(=O)c3ccccc3)[C@@H]1[C@]4(OC(C)=O)[C@@H](O)[C@@H]2OC
cell viability [1]: 1.34
cell viability [2]: 0.869

COc1ccc2[nH]cc(CCN)c2c1
cell viability [1]: 1.11
cell viability [2]: 0.815

CCOc1cc(C=O)ccc1O
cell viability [1]: 0.973
cell viability [2]: 0.935

C[C@H]1CCCC(=O)CCC/C=C/c2cc(O)cc(O)c2C(=O)O1
cell viability [1]: 0.931
cell viability [2]: 0.893

C=CC1CN2CCC1CC2C(O)c1ccnc2ccccc12 (stereo not drawn)
cell viability [1]: 0.937
cell viability [2]: 0.99

COc1cccc2c1cc([N+](=O)[O-])c1c(C(=O)O)cc3c(c12)OCO3
cell viability [1]: 0.98
cell viability [2]: 0.97

NNC(=O)c1ccc(N)cc1
cell viability [1]: 1.03
cell viability [2]: 0.917

C[C@@H]1O[C@@H](O[C@H]2C[C@@H](O)[C@]3(CO)[C@H]4[C@H](O)C[C@]5(C)[C@@H](C6=CC(=O)OC6)CC[C@]5(O)[C@@H]4CC[C@]3(O)C2)[C@H](O)[C@H](O)[C@H]1O
cell viability [1]: 0.839
cell viability [2]: 0.854
